## Library screening results

Each number is a percent effect as filed.
The controls that fix the scale are not given in the record; negative values are as filed.
This is an unselected part of the compounds tested.
A dash means the value is not listed here; it may have been measured.

Mtb heat-shock: 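Assay on Mycobacterium tuberculosis, filed only as a heat shock assay from Cornell; the read-out is not stated. The concentration is filed as 10 mM, unlikely as a test dose, so the dose is not known. Higher reads as stronger inhibition (inferred: compounds with an IC50 in retests scored well above the rest). About 69,000 compounds were tested under these conditions; 1.4% (about 930) showed 50% or more at least once.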
Mtb growth Cornell: 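Whole-cell assay for inhibitors of Mycobacterium tuberculosis growth, labelled Cornell in the record; the read-out is not stated. The concentration is filed as 10 mM, unlikely as a test dose, so the dose is not known. Higher means stronger inhibition (inferred from two other growth screens of the library). Size under these conditions: about 53,000 compounds, about 900 of them at 50% or above in at least one test.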

| # | SMILES | Mtb heat-shock | Mtb growth Cornell |
|---|---|---|---|
| 1 | `CCC(CC)C(=O)N1CCC2(CC1)c1ccccc1[C@@H](OC)[C@@H]2O` | 4.226 | -17.92 |
| 2 | `O=S(=O)(CCNC1CCc2ncnn2C1)c1ccc(Cl)cc1` (stereo not drawn) | -24.24 | - |
| 3 | `Cc1cc(C2CCC2)nc(NCC(C)(C)N2CCCC2)n1` | -10.65 | 16.1 |
| 4 | `Cc1ccsc1CNC(=O)CC1CN(C(=O)OC(C)(C)C)C1` | -24.37 | -31.91 |
| 5 | `CC1CN(C(=O)c2cscn2)c2ccccc2S1` (stereo not drawn) | -15.14 | - |
| 6 | `CCOCCCn1c(NC(=O)c2ccnc(C)n2)nc2ccccc21` | 94.99 | - |
| 7 | `CCCn1cc(CN2CCCC2c2cccc(-n3ccnc3)n2)cn1` (stereo not drawn) | 38.79 | -22.36 |
| 8 | `O=C(O)C(F)(F)F.c1ncn(Cc2cnc3n2CCN(Cc2ccsc2)CC3)n1` | -8.028 | - |
| 9 | `CC(C)NCC1(O)CCCN(CCC2CCCCC2)C1=O` (stereo not drawn) | -7.119 | 14.85 |
| 10 | `Cc1nnc(CN(C)CC(=O)N2CCCC(C)CC2)n1C` (stereo not drawn) | -132.4 | - |
| 11 | `COc1cccc(C(=O)N2CCN(Cc3nc(C(C)C)no3)CC2)c1` | 2.951 | 23.26 |
| 12 | `CC1(C)COCCN1C(=O)CCc1nc(-c2ccccn2)no1` | 0.8129 | -45.61 |
| 13 | `Cn1cc(-c2cc(C(F)F)n3nc(CCC(=O)O)nc3n2)cn1` | -14.4 | -6.676 |
| 14 | `CCS(=O)(=O)CC(C)NC(=O)N(C)Cc1cc(Cl)cn1C` (stereo not drawn) | -8.109 | 5.256 |
| 15 | `CCc1c(C)nn(CCNC(=O)C2CCCN(C(=O)N(C)C)C2)c1C` (stereo not drawn) | -5.446 | 10.77 |
| 16 | `Cc1[nH]nc2ncc(C(=O)N3CCN(CCC(C)C)CC3)cc12` | -7.727 | -30.83 |
| 17 | `CC(C)c1nn(C)c(N(C)C)c1CNCc1cccc2cccnc12.Cl` | 16.12 | - |
| 18 | `CCn1ccnc1CN1CCC(CCC(=O)Nc2ccccc2Cl)CC1` | -16.07 | -1.299 |
| 19 | `CCc1c(C)nc2cc(C3CCN(Cc4cccc(F)c4)C3)nn2c1O` (stereo not drawn) | -10.08 | -21.57 |
| 20 | `[H][C@@]12COC[C@]1(C(=O)NCc1cccs1)CN(Cc1cnn(C)c1)C2` | -32.21 | - |
| 21 | `COCCNC(=O)C1CC(=O)N(c2n[nH]c3cccc(F)c23)C1` (stereo not drawn) | -13.45 | -44.58 |
| 22 | `Cc1cc(=O)n2nc(Oc3cccc(C(N)=O)c3)sc2n1` | -8.505 | 3.046 |
| 23 | `Cc1cc(C[S+]([O-])CC(=O)Nc2c(C)cccc2C)no1` (stereo not drawn) | 2.92 | 13.29 |
| 24 | `Cc1cnn(CC(C)NCC(=O)NCCOc2ccccc2)c1` (stereo not drawn) | -12 | -24.13 |
| 25 | `[H][C@@]12CCCO[C@]1([H])[C@H](NC(=O)c1cnn(C)c1)CN2Cc1ccoc1` | 11.48 | -15.87 |
| 26 | `CCC1CN(c2cnn(-c3ccccc3)c(=O)c2Cl)CCO1` (stereo not drawn) | 35.41 | -1.332 |
| 27 | `CCOc1ccc(C(=O)N2CCCC(n3nc(C)nc3C)C2)cc1` (stereo not drawn) | 12.69 | - |
| 28 | `CCc1c(C)nc2ccccc2c1N1CCC(NC(C)=O)CC1` | 3.438 | - |
| 29 | `OCCn1nccc1C1CCN(CCOc2ccccc2Cl)CC1` | -14.13 | -31.74 |
| 30 | `CC(C)c1nccn1C1CCCN(C(=O)CCc2cnn(C)c2)C1` (stereo not drawn) | -10.44 | -16.11 |
| 31 | `COc1ccccc1OCCNC(=O)NCc1nc(C)no1` | -41.51 | - |
| 32 | `O=C(NCc1ccccc1)N1Cc2nc(COCC3CC3)oc2C1` | -10.68 | -28.2 |
| 33 | `COc1cccc2c3c(c(=O)[nH]c12)CCO3` | 15.27 | -12.94 |
| 34 | `NC(=O)c1ccc(N2CCN(CCCc3cn[nH]c3)CC2)cc1` | -19.1 | 12.46 |
| 35 | `Cc1nc(CN2CCN(Cc3nccn3C)CC2)no1` | 4.795 | - |
| 36 | `Cn1cncc1CN1CC[C@](C)(O)[C@@H](Oc2cccc(F)c2)C1` | -17.64 | - |
| 37 | `Clc1cnccc1NCc1cccc(COC2CCOCC2)c1` | -3.71 | 33.29 |
| 38 | `Cc1ccsc1CN1CCn2c(COc3cccnc3)cnc2C1C.O=C(O)C(F)(F)F.O=C(O)C(F)(F)F` (stereo not drawn) | 9.479 | 22.91 |
| 39 | `COc1ccc(NC(=O)N(CCO)Cc2ccsc2)c(OC)c1` | -10.14 | 21.98 |
| 40 | `O=C(O)C(F)(F)F.O=C(c1cccnc1)N1C[C@@H](c2ccccc2)[C@@]2(CCNC2=O)C1` | -24.73 | 29.34 |
| 41 | `CC(Cn1cccn1)NC(=O)NCCN1CCc2ccccc2C1` (stereo not drawn) | 4.499 | 15.99 |
| 42 | `CCc1nc(CN2CCOC(CN(C)c3cccnn3)C2)cs1` (stereo not drawn) | 13.9 | 1.86 |
| 43 | `Fc1ccccc1Oc1nccnc1C1CCCN(C2CCOCC2)C1` (stereo not drawn) | 1.545 | 13.16 |
| 44 | `Cc1cc(=O)n(C)cc1NC(=O)CC1CCC1` | 12.65 | -1.292 |
| 45 | `Cc1cc(C(=O)N(C)Cc2cnn(C)c2C)n(C)n1` | -9.704 | -15.67 |
| 46 | `Cc1nn(CCO)c(C)c1CN1CCN(C2CCCCC2)C(=O)C1` | -15.28 | - |
| 47 | `Cc1ccc(N2CCCC(NCC(=O)NC(C3CC3)C3CC3)C2)nn1` (stereo not drawn) | -1.205 | -21.82 |
| 48 | `Cc1ccc(-c2nc(CN(C)C3CCS(=O)(=O)C3)cs2)o1` (stereo not drawn) | -22.15 | - |
| 49 | `Cc1nc(C2CCCN(C(=O)CCn3ccccc3=O)C2)no1` (stereo not drawn) | -9.248 | - |
| 50 | `Cc1ncsc1C(=O)NC1CCN(Cc2ccc(C(N)=O)cc2)CC1` | -11.81 | - |

Some entries from above, unchanged:

SMILES,Mtb heat-shock,Mtb growth Cornell
OCCn1nccc1C1CCN(CCOc2ccccc2Cl)CC1,-14.13,-31.74
Fc1ccccc1Oc1nccnc1C1CCCN(C2CCOCC2)C1 (stereo not drawn),1.545,13.16
Cc1cc(C[S+]([O-])CC(=O)Nc2c(C)cccc2C)no1 (stereo not drawn),2.92,13.29
Cc1ccc(N2CCCC(NCC(=O)NC(C3CC3)C3CC3)C2)nn1 (stereo not drawn),-1.205,-21.82
COc1ccccc1OCCNC(=O)NCc1nc(C)no1,-41.51,-
O=C(O)C(F)(F)F.c1ncn(Cc2cnc3n2CCN(Cc2ccsc2)CC3)n1,-8.028,-

Data taken from ChEMBL document CHEMBL3988442, “University of Dundee, Small-Polar-MMV Screening Library” (2021).